Results are given in words; binding and its absence hold for the method and conditions named. In cells and extracts the contact can be indirect. A yes stands for co-enrichment or nearness to the bait. Other partners may have been found. For some assays here: No binding means not detected with the bait. Tags and fused reporters may be left off the sequences shown.
T1: viperin (virus inhibitory protein, endoplasmic reticulum-associated, interferon-inducible) with N-terminal 3x-FLAG tag (human) (UniProt Q8WXG1)
T1 sequence: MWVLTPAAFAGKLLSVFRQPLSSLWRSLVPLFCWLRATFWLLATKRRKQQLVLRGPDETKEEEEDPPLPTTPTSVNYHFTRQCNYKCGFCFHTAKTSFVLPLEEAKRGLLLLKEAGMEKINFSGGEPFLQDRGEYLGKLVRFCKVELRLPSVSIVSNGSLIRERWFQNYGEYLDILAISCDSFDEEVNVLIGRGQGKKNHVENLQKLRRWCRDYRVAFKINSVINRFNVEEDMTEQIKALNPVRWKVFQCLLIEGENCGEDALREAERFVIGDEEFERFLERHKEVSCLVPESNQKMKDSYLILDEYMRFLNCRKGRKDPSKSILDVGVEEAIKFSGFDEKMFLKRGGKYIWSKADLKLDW

By UniProt entry, the sequences of proteins in these tests, tags left out. Residues count along the entry.
UniProt Q14534: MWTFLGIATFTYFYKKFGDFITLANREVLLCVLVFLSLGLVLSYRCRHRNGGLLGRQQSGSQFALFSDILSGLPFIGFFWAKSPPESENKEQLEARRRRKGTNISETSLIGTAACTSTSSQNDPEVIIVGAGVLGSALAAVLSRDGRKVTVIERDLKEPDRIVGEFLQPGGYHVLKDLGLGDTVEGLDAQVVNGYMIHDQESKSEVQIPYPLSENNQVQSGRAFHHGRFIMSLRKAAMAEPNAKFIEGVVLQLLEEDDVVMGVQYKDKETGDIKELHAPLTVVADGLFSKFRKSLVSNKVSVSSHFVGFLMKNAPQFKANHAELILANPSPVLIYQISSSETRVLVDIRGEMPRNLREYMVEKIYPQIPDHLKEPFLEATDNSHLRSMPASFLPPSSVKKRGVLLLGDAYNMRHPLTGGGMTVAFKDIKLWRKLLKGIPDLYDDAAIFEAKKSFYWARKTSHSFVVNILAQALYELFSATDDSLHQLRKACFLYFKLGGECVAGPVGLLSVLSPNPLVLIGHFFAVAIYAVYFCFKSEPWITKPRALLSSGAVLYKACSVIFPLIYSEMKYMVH
UniProt P40939, residues 37-763: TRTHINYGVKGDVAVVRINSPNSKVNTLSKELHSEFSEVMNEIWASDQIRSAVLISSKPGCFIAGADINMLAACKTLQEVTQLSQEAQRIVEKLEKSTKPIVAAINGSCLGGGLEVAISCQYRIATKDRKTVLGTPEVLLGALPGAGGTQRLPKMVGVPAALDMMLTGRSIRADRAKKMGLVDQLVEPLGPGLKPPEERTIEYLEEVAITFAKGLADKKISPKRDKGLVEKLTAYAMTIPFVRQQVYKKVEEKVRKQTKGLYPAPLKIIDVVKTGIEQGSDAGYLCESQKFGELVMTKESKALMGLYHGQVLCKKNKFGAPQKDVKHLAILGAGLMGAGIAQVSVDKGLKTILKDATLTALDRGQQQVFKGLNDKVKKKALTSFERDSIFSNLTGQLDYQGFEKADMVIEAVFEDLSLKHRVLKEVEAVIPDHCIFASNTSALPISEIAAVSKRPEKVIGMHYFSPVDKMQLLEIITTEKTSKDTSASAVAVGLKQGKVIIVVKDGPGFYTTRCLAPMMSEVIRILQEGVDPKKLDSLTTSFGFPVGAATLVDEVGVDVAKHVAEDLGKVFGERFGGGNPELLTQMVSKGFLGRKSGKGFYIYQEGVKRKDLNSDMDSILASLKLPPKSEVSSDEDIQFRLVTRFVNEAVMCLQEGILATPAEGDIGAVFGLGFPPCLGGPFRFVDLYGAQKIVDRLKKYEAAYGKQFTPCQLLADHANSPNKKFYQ

T2: viperin (virus inhibitory protein, endoplasmic reticulum-associated, interferon-inducible) with N-terminal 3x-FLAG tag (human), Q8WXG1
T2 chain: T1 sequence

B1: lanosterol synthase (endogenous) (enzyme, UniProt P48449 1-732)
chain: MTEGTCLRRRGGPYKTEPATDLGRWRLNCERGRQTWTYLQDERAGREQTGLEAYALGLDTKNYFKDLPKAHTAFEGALNGMTFYVGLQAEDGHWTGDYGGPLFLLPGLLITCHVARIPLPAGYREEIVRYLRSVQLPDGGWGLHIEDKSTVFGTALNYVSLRILGVGPDDPDLVRARNILHKKGGAVAIPSWGKFWLAVLNVYSWEGLNTLFPEMWLFPDWAPAHPSTLWCHCRQVYLPMSYCYAVRLSAAEDPLVQSLRQELYVEDFASIDWLAQRNNVAPDELYTPHSWLLRVVYALLNLYEHHHSAHLRQRAVQKLYEHIVADDRFTKSISIGPISKTINMLVRWYVDGPASTAFQEHVSRIPDYLWMGLDGMKMQGTNGSQIWDTAFAIQALLEAGGHHRPEFSSCLQKAHEFLRLSQVPDNPPDYQKYYRQMRKGGFSFSTLDCGWIVSDCTAEALKAVLLLQEKCPHVTEHIPRERLCDAVAVLLNMRNPDGGFATYETKRGGHLLELLNPSEVFGDIMIDYTYVECTSAVMQALKYFHKRFPEHRAAEIRETLTQGLEFCRRQQRADGSWEGSWGVCFTYGTWFGLEAFACMGQTYRDGTACAEVSRACDFLLSRQMADGGWGEDFESCEERRYLQSAQSQIHNTCWAMMGLMAVRHPDIEAQERGVRCLLEKQLPNGDWPQENIAGVFNKSCAISYTSYRNIFPIWALGRFSQLYPERALAGHP
B2: HADHB (mitochondrial trifunctional protein β-subunit), P55084 34-474 (protein)
chain: AAPAVQTKTKKTLAKPNIRNVVVVDGVRTPFLLSGTSYKDLMPHDLARAALTGLLHRTSVPKEVVDYIIFGTVIQEVKTSNVAREAALGAGFSDKTPAHTVTMACISANQAMTTGVGLIASGQCDVIVAGGVELMSDVPIRHSRKMRKLMLDLNKAKSMGQRLSLISKFRFNFLAPELPAVSEFSTSETMGHSADRLAAAFAVSRLEQDEYALRSHSLAKKAQDEGLLSDVVPFKVPGKDTVTKDNGIRPSSLEQMAKLKPAFIKPYGTVTAANSSFLTDGASAMLIMAEEKALAMGYKPKAYLRDFMYVSQDPKDQLLLGPTYATPKVLEKAGLTMNDIDAFEFHEAFSGQILANFKAMDSDWFAENYMGRKTKVGLPPLEKFNNWGGSLSLGHPFGATGCRLVMAAANRLRKEGGQYGLVAACAAGGQGHAMIVEAYPK
B3: farnesyl pyrophosphate synthase (enzyme, UniProt P14324 1-419)
chain: MPLSRWLRSVGVFLLPAPYWAPRERWLGSLRRPSLVHGYPVLAWHSARCWCQAWTEEPRALCSSLRMNGDQNSDVYAQEKQDFVQHFSQIVRVLTEDEMGHPEIGDAIARLKEVLEYNAIGGKYNRGLTVVVAFRELVEPRKQDADSLQRAWTVGWCVELLQAFFLVADDIMDSSLTRRGQICWYQKPGVGLDAINDANLLEACIYRLLKLYCREQPYYLNLIELFLQSSYQTEIGQTLDLLTAPQGNVDLVRFTEKRYKSIVKYKTAFYSFYLPIAAAMYMAGIDGEKEHANAKKILLEMGEFFQIQDDYLDLFGDPSVTGKIGTDIQDNKCSWLVVQCLQRATPEQYQILKENYGQKEAEKVARVKALYEELDLPAVFLQYEEDSYSHIMALIEQYAAPLPPAVFLGLARKIYKRRK

Key:
[1] = molecular target: T1, viperin (virus inhibitory protein, endoplasmic reticulum-associated, interferon-inducible) with N-terminal 3x-FLAG tag (human); assay: affinity purification with mass spectrometry
[2] = molecular target: T2, viperin (virus inhibitory protein, …); assay: affinity purification with mass spectrometry; conditions: remark: other sources report otherwise

Molecule | binding [1] | binding [2]
squalene monooxygenase (endogenous) (from UniProt Q14534 1-574) (enzyme) | binds | 
HADHA (from UniProt P40939 37-763) | binds | 
B1 | binds | 
B2 |  | binds
B3 | no binding | 
